27 molecules from the supplement of paper PMC11348887 can be followed below.

Structures are written as SMILES. Structures can show the parent of a compound that is named as a salt. This is one part of the list. Most entries show no effect beyond the scatter of the controls.

Holding throughout (conditions): 5 µM; treatment: days 7-14 after plating, readout day 21
In experiment [1] the test system is hPSC-derived cortical neurons (WA09). The experiment in a line: nucleus area z-score vs screen plate; higher = larger nuclei (more mature).
Experiment [2] has the same test system. Put plainly: total neurite length per nucleus (MAP2) z-score; higher = more neurite growth.
The test system is the same in experiment [3]. The experiment in a line: nucleus roundness z-score vs screen plate; higher = rounder nuclei (more mature).
Experiment [4] has the same test system. Put plainly: KCl-induced FOS+/EGR-1+ double-positive nuclei fraction z-score (KCl minus unstimulated); higher = stronger activity-induced IEG response.

Molecule `CN1CCN(c2nc(C3=C(c4c[nH]c5ccccc45)C(=O)NC3=O)c3ccccc3n2)CC1` [Sotrastaurin] had a nucleus area z-score in experiment [1] of -0.125. Also, the “total neurite length per nucleus (z-score)” value in experiment [2] was found to be 0.887. The same molecule returned a nucleus roundness z-score in experiment [3] of 0.443. In addition, in experiment [4], the “KCl-induced FOS+/EGR-1+ double-positive nuclei fraction z-score” value worked out at 0.598.

Turning to `COC[C@H](NC(=O)c1cnc(C)s1)C(=O)N[C@@H](COC)C(=O)N[C@@H](Cc1ccccc1)C(=O)[C@@]1(C)CO1` [Oprozomib (ONX 0912)], the nucleus area z-score in experiment [1] is -15.8. For the same molecule, the “total neurite length per nucleus (z-score)” value in experiment [2] is -3.9. The molecule further registered a nucleus roundness z-score in experiment [3] of -4.24. The “KCl-induced FOS+/EGR-1+ double-positive nuclei fraction z-score” value in experiment [4] was -0.81.

On to `Cc1ccc([N+](=O)[O-])cc1S(=O)(=O)N(C)/N=C/c1cnc2ccc(Br)cn12`, for which the nucleus area z-score in experiment [1] was -6.41. The “total neurite length per nucleus (z-score)” value in experiment [2] is -2.64. Further, the nucleus roundness z-score in experiment [3] is -4.52. In addition, the “KCl-induced FOS+/EGR-1+ double-positive nuclei fraction z-score” value in experiment [4] is -0.949.

The molecule `N#Cc1c(Oc2ccc(F)c(NC(=O)Cc3cccc(C(F)(F)F)c3)c2)ccc2nc(NC(=O)C3CC3)sc12` showed a nucleus area z-score in experiment [1] of 0.681. The “total neurite length per nucleus (z-score)” value in experiment [2] amounted to 0.703. This molecule gave a nucleus roundness z-score in experiment [3] of 0.623. For the same molecule, in experiment [4], the “KCl-induced FOS+/EGR-1+ double-positive nuclei fraction z-score” value is -1.17.

With `O=C(Cc1ccccc1)Nc1nnc(CCSCCc2nnc(NC(=O)Cc3ccccc3)s2)s1`, in experiment [1], the nucleus area z-score stood at 0.313. Besides, the “total neurite length per nucleus (z-score)” value in experiment [2] was 1.15. In addition, in experiment [3], the nucleus roundness z-score came out at 0.0258. In experiment [4], the “KCl-induced FOS+/EGR-1+ double-positive nuclei fraction z-score” value is 0.165.

Consider `COc1ccc(Cn2ccc3ccc(C(=O)NO)cc32)cc1`, for which, in experiment [1], the nucleus area z-score was -0.0959. Besides, in experiment [2], the “total neurite length per nucleus (z-score)” value amounted to 0.202. The nucleus roundness z-score in experiment [3] was 0.289. In addition, the “KCl-induced FOS+/EGR-1+ double-positive nuclei fraction z-score” value in experiment [4] amounted to 0.617.

In experiment [1], `CC(C)(C)c1cnc(CSc2cnc(NC(=O)C3CCNCC3)s2)o1` yielded a nucleus area z-score of -10.9. Moreover, the “total neurite length per nucleus (z-score)” value in experiment [2] was -3.24. In experiment [3], this molecule yielded a nucleus roundness z-score of -3.96. In addition, the “KCl-induced FOS+/EGR-1+ double-positive nuclei fraction z-score” value in experiment [4] is -0.758.

In turn, `CCCc1nn(C)c2c(=O)[nH]c(-c3cc(S(=O)(=O)N4CCN(C)CC4)ccc3OCC)nc12` [Sildenafil Citrate] yielded a nucleus area z-score in experiment [1] of 0.767. Also, in experiment [2], the “total neurite length per nucleus (z-score)” value was -0.301. The same molecule displayed a nucleus roundness z-score in experiment [3] of -0.409. The “KCl-induced FOS+/EGR-1+ double-positive nuclei fraction z-score” value in experiment [4] amounted to 0.695.

On to `N#CSc1cc(SC#N)c(N)nc1N`, for which the nucleus area z-score in experiment [1] is -3.71. The “total neurite length per nucleus (z-score)” value in experiment [2] was -2.47. The molecule further came in with a nucleus roundness z-score in experiment [3] of -4. In addition, the “KCl-induced FOS+/EGR-1+ double-positive nuclei fraction z-score” value in experiment [4] was -0.872.

Turning to `CC(=O)c1cc2c(o1)C(=O)c1ccccc1C2=O` [Napabucasin], the nucleus area z-score in experiment [1] turned out to be 0.0391. For the same molecule, in experiment [2], the “total neurite length per nucleus (z-score)” value was determined as 0.0943. The molecule further registered a nucleus roundness z-score in experiment [3] of 0.734. Besides, in experiment [4], the “KCl-induced FOS+/EGR-1+ double-positive nuclei fraction z-score” value came out at 3.82.

As to `O=C([O-])C(O)[C@H](O)[C@@H](O)[C@H](O)[C@H](O)CO.O=C([O-])C(O)[C@H](O)[C@@H](O)[C@H](O)[C@H](O)CO.[Ca+2]` (stereo partly drawn) [Calcium Gluceptate], in experiment [1], the nucleus area z-score is -0.598. Also, the “total neurite length per nucleus (z-score)” value in experiment [2] is 0.787. The nucleus roundness z-score in experiment [3] came to 0.57. For the same molecule, in experiment [4], the “KCl-induced FOS+/EGR-1+ double-positive nuclei fraction z-score” value worked out at 0.343.

Take `O=C(CCCN1CCN(c2ccccn2)CC1)c1ccc(F)cc1` [Azaperone]: in experiment [1], the nucleus area z-score is -0.144. Also, the “total neurite length per nucleus (z-score)” value in experiment [2] is 0.463. Also, in experiment [3], the nucleus roundness z-score was determined as 0.648. The “KCl-induced FOS+/EGR-1+ double-positive nuclei fraction z-score” value in experiment [4] was found to be 1.15.

`CCCOc1ccc(C(=O)OCCN(CC)CC)cc1N` [Proparacaine HCl] gave a nucleus area z-score in experiment [1] of 0.909. In addition, in experiment [2], the “total neurite length per nucleus (z-score)” value was 0.471. The molecule also yielded a nucleus roundness z-score in experiment [3] of 0.454. Besides, the “KCl-induced FOS+/EGR-1+ double-positive nuclei fraction z-score” value in experiment [4] was found to be 0.541.

In turn, `Cc1ccc(C(=O)Nc2ccc(CN3CCN(C)CC3)c(C(F)(F)F)c2)cc1C#Cc1cnc2cccnn12` came in with a nucleus area z-score in experiment [1] of -6.97. Besides, in experiment [2], the “total neurite length per nucleus (z-score)” value was -2.66. This molecule also gave a nucleus roundness z-score in experiment [3] of -2.67. The “KCl-induced FOS+/EGR-1+ double-positive nuclei fraction z-score” value in experiment [4] is 0.607.

In experiment [1], `OCCN1C[C@H](O)[C@@H](O)[C@H](O)[C@H]1CO` [Miglitol] yielded a nucleus area z-score of -0.567. The “total neurite length per nucleus (z-score)” value in experiment [2] was -0.344. The same molecule showed a nucleus roundness z-score in experiment [3] of 0.0771. Further, the “KCl-induced FOS+/EGR-1+ double-positive nuclei fraction z-score” value in experiment [4] came to 1.23.

Regarding `Nc1nc(Cl)nc2c1ncn2[C@@H]1O[C@H](CO)[C@@H](O)[C@@H]1F` [Clofarabine], in experiment [1], the nucleus area z-score is -10.2. Besides, the “total neurite length per nucleus (z-score)” value in experiment [2] was -3.65. Also, the nucleus roundness z-score in experiment [3] is -11.5. Further, in experiment [4], the “KCl-induced FOS+/EGR-1+ double-positive nuclei fraction z-score” value is -0.594.

The molecule `N#Cc1cc(CN2CCC(Nc3ncnc4sc(Cl)cc34)CC2)ccc1F` registered a nucleus area z-score in experiment [1] of -0.533. Besides, in experiment [2], the “total neurite length per nucleus (z-score)” value came out at 0.799. The molecule further came in with a nucleus roundness z-score in experiment [3] of 0.608. For the same molecule, the “KCl-induced FOS+/EGR-1+ double-positive nuclei fraction z-score” value in experiment [4] is 0.261.

`O=C1C(O)=C([C@H]2CC[C@H](c3ccc(Cl)cc3)CC2)C(=O)c2ccccc21` [Atovaquone] returned a nucleus area z-score in experiment [1] of 0.407. Further, the “total neurite length per nucleus (z-score)” value in experiment [2] was -0.161. Moreover, the nucleus roundness z-score in experiment [3] is -0.0739. The “KCl-induced FOS+/EGR-1+ double-positive nuclei fraction z-score” value in experiment [4] was found to be 0.344.

The molecule `CCC1(c2c[nH]cn2)Cc2ccccc2C1` [Atipamezole] yielded a nucleus area z-score in experiment [1] of 0.845. Moreover, the “total neurite length per nucleus (z-score)” value in experiment [2] is -0.453. Moreover, the nucleus roundness z-score in experiment [3] stood at 0.322. Besides, the “KCl-induced FOS+/EGR-1+ double-positive nuclei fraction z-score” value in experiment [4] came to 1.36.

On to `CCCCCCCCCCCCc1ccc(S(=O)(=O)Nc2nncs2)cc1`, for which the nucleus area z-score in experiment [1] is -0.138. The “total neurite length per nucleus (z-score)” value in experiment [2] came to 1.31. The nucleus roundness z-score in experiment [3] came to 0.165. The “KCl-induced FOS+/EGR-1+ double-positive nuclei fraction z-score” value in experiment [4] was -0.635.

Turning to `O=C(O)/C=C/c1ccc(Cn2ccnc2)cc1` [Ozagrel], in experiment [1], the nucleus area z-score came out at 1.01. The “total neurite length per nucleus (z-score)” value in experiment [2] worked out at 0.0091. The molecule also came in with a nucleus roundness z-score in experiment [3] of -0.361. Further, the “KCl-induced FOS+/EGR-1+ double-positive nuclei fraction z-score” value in experiment [4] is 1.09.

Molecule `C/C(=N\NC(=O)c1cccc(S(=O)(=O)N2CCOCC2)c1)c1cc(Cl)ccc1O` had a nucleus area z-score in experiment [1] of 0.454. In addition, the “total neurite length per nucleus (z-score)” value in experiment [2] stood at 0.689. Also, in experiment [3], the nucleus roundness z-score amounted to 0.564. Further, in experiment [4], the “KCl-induced FOS+/EGR-1+ double-positive nuclei fraction z-score” value was found to be 0.618.

As for `Cc1ccc(NC(=S)NNc2c([N+](=O)[O-])cc(C(F)(F)F)cc2[N+](=O)[O-])cc1Cl`, in experiment [1], the nucleus area z-score was -0.0955. Also, the “total neurite length per nucleus (z-score)” value in experiment [2] was 0.995. Moreover, the nucleus roundness z-score in experiment [3] is 0.739. For the same molecule, the “KCl-induced FOS+/EGR-1+ double-positive nuclei fraction z-score” value in experiment [4] turned out to be 1.71.

Molecule `CC(C)(C)NCC(O)c1cc(O)cc(O)c1` (stereo not drawn) [Terbutaline Sulfate] came in with a nucleus area z-score in experiment [1] of 1.16. The “total neurite length per nucleus (z-score)” value in experiment [2] stood at 0.316. For the same molecule, in experiment [3], the nucleus roundness z-score is -0.082. For the same molecule, the “KCl-induced FOS+/EGR-1+ double-positive nuclei fraction z-score” value in experiment [4] is 1.08.

In experiment [1], `CCOC(=O)c1ccc(C#Cc2ccc3c(c2)C(C)(C)CCS3)nc1` [Tazarotene] returned a nucleus area z-score of 0.37. In addition, the “total neurite length per nucleus (z-score)” value in experiment [2] was -0.00521. Also, the nucleus roundness z-score in experiment [3] was -0.579. Besides, the “KCl-induced FOS+/EGR-1+ double-positive nuclei fraction z-score” value in experiment [4] was -0.0922.

For `CC(=O)O[C@H]1C(=O)[C@@]2(C)[C@H]([C@H](OC(=O)c3ccccc3)[C@]3(O)C[C@H](OC(=O)[C@H](O)[C@@H](NC(=O)c4ccccc4)c4ccccc4)C(C)=C1C3(C)C)[C@]1(OC(C)=O)CO[C@@H]1C[C@@H]2O` [Paclitaxel], the nucleus area z-score in experiment [1] is -0.194. The “total neurite length per nucleus (z-score)” value in experiment [2] came to 5.16. The molecule also returned a nucleus roundness z-score in experiment [3] of -1.23. Further, the “KCl-induced FOS+/EGR-1+ double-positive nuclei fraction z-score” value in experiment [4] is -0.00939.

`CCCNC(=O)Nc1ccc(Oc2ncnc3cc(OC)c(OC)cc23)cc1Cl`: the nucleus area z-score in experiment [1] amounted to 2.13. Besides, in experiment [2], the “total neurite length per nucleus (z-score)” value is 0.134. In experiment [3], this molecule displayed a nucleus roundness z-score of -0.716. In experiment [4], the “KCl-induced FOS+/EGR-1+ double-positive nuclei fraction z-score” value is -0.636.
